# Experimental data as given in paper PMC10086757.
# Amino acid sequences for entries named in this document (tags omitted).
# UniProt O60260: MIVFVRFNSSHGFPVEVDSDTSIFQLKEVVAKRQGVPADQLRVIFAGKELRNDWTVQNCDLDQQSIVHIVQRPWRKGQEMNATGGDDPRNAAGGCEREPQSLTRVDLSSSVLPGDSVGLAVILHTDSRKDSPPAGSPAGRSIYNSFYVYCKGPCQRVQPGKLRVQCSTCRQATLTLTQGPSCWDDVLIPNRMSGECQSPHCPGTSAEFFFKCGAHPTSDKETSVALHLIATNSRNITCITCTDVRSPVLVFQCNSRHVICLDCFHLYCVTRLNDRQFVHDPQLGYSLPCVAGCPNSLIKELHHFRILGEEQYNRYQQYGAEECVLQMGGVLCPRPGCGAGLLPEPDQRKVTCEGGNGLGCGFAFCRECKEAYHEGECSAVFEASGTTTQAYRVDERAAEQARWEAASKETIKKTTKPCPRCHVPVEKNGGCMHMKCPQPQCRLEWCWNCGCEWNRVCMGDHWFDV
# B1: Vitamin D receptor (VDR), endogenous in HCT116 (protein, UniProt P11473 1-427)
# chain: MEAMAASTSLPDPGDFDRNVPRICGVCGDRATGFHFNAMTCEGCKGFFRRSMKRKALFTCPFNGDCRITKDNRRHCQACRLKRCVDIGMMKEFILTDEEVQRKREMILKRKEEEALKDSLRPKLSEEQQRIIAILLDAHHKTYDPTYSDFCQFRPPVRVNDGGGSHPSRPNSRHTPSFSGDSSSSCSDHCITSSDMMDSSSFSNLDLSEEDSDDPSVTLELSQLSMLPHLADLVSYSIQKVIGFAKMIPGFRDLTSEDQIVLLKSSAIEVIMLRSNESFTMDDMSWTCGNQDYKYRVSDVTKAGHSLELIEPLIKFQVGLKKLNLHEEEHVLLMAICIVSPDRPGVQDAALIEAIQDRLSNTLQTYIRCRHPPPGSHLLYAKMIQKLADLRSLNEEHSKQYRCLSFQPECSMKLTPLVLEVFGNEIS
# Biological target: Flag-Parkin (UniProt O60260)
# Assay: affinity purification with mass spectrometry; HCT116 transfected with Flag-Parkin or empty Flag vector for 24 h; anti-Flag IP with Protein A/G-Agarose beads, SDS-PAGE, in-gel trypsin digestion, LC-MS/MS
binder,measurement,value
B1,binding,binds

# These are yes or no findings as the source states them, for the method shown. Binding seen in cells or lysates may run through a third protein. A yes stands for co-enrichment or nearness to the bait. Other partners may have been found.
